# From patent US20200207837A1
# Amino acid sequences for entries named in this document (tags omitted). A change or cut given only in a name is not applied to a line headed by its entry.
# UniProt Q9Y5K2: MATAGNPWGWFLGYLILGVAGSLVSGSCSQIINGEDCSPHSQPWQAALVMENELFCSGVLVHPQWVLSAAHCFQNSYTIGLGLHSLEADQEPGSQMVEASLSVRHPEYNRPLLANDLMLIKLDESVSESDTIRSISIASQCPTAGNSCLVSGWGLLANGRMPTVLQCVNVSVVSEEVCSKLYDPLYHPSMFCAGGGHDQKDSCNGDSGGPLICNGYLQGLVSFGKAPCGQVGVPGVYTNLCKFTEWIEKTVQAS
# Results are given in words; binding and its absence hold for the method and conditions named. Some results given as binding are weak or reduced against the parent protein; the word gives no strength.
# Key:
# [1] = biological target: activated KLK4 (human KLK4, C-terminal His tag, pro-KLK4 activated with thermolysin) (human) (UniProt Q9Y5K2); assay: X-ray crystal structure of the complex (legend of FIG. 6)
# [2] = biological target: activated KLK4 (human KLK4, C-terminal His tag, pro-KLK4 activated with thermolysin) (human) (UniProt Q9Y5K2); assay: X-ray crystal structure of the complex
binder,measurement,setting,value
KLK4/KLK8 inhibitory peptide K41043 (designed binder) GSGMKETAAAKFERQHMDSPDLGTDDDDKAMADIGSANSDPQFGLFSKYRTPNCRRYSIHGCNRMYAPVCGSDMSTYANECTLCMKIREGGHNIKIIRNGPCGASAAA,binding,[1],binds
same,binding,[2],binds
